# Measured values from PubChem BioAssay AID330 (DTP/NCI, 2004).
# The list is a part of this screen's results and no random one: it is rich in T/C values a quarter to a half above the control, in often repeated tests (any T/C) and in doses without a T/C. Further doses and runs are listed elsewhere. T/C is the treated group as % of the vehicle group. Some doses have a count of surviving animals in place of a T/C: the source holds a T/C of zero for them, seemingly a mark for toxic or unscored doses. Some doses without a T/C left all or most animals alive at the check, yet need not have been tolerated: survival well below the control is almost never listed, so the zero probably covers shortened survival too. Counts of survivors are from the toxicity check (mostly the fifth day) where no day follows; animals may have died later. Schedule codes are those of the source, read here as Q, the interval in days (D) or hours (H), X, the number of doses. Some entries were tested several times; the results are listed from low to high. For survival time, the PubChem record calls one and a half times the control and up active, and a quarter to a half above the control has no call in these data; cut-offs in other NCI protocols can differ. Some T/C values are followed by the survivors on the day toxicity was checked, most often the fifth; where none is given, no animal had died by that day. Marks such as (2×) say how often a value occurs here.
# Test system: P388 leukemia ip, CD2F1 mice, survival T/C
# Assay: NCI In Vivo Anticancer Drug Screen. Data for tumor model P388 Leukemia (intraperitoneal) in CD2F1 (CDF1) mice
# Details: T/C endpoint: median survival time, higher T/C = longer survival
# [1] = dose: 120.0 mg/kg/injection, schedule: Q01DX005 (ip), vehicle: saline with Tween-80
# [2] = dose: 240.0 mg/kg/injection, schedule: Q01DX005 (ip), vehicle: saline with Tween-80
# [3] = dose: 25.0 mg/kg/injection, schedule: Q01DX005 (ip), vehicle: saline with Tween-80
# [4] = dose: 100.0 mg/kg/injection, schedule: Q01DX005 (ip), vehicle: distilled water + Tween-80
# [5] = dose: 100.0 mg/kg/injection, schedule: Q01DX005 (ip), vehicle: saline with Tween-80
# [6] = dose: 200.0 mg/kg/injection, schedule: Q01DX005 (ip), vehicle: saline with Tween-80
smiles,measurement,setting,value
O=c1cccc(C2CC(CO)C3CCCCN3C2)[nH]1 (configuration not stated),survivor count,"dose: 4.5 mg/kg/injection, schedule: Q01DX009 (ip), vehicle: acid diluted with CMC",6 of 6
same,survivor count,"dose: 36.0 mg/kg/injection, schedule: Q01DX009 (ip), vehicle: acid diluted with CMC",1 of 6
CCOC(=O)CC(CS(=O)CP(=O)(OCC)OCC)C(=O)OCC (configuration not stated),survivor count,[1],0 of 6
same,survivor count,[2],0 of 6
CCOC(=O)C(C(C)=O)C(c1cc(OC)c(OC)c(OC)c1)c1cc2c(cc1O)OCO2 (configuration not stated),T/C,[2],143 % of control
COc1ccc(S(=O)(=O)N/N=C/C(=O)O)cc1,T/C,"dose: 12.5 mg/kg/injection, schedule: Q01DX005 (ip), vehicle: distilled water + Tween-80","127, 130, 135 % of control"
same,T/C,"dose: 12.5 mg/kg/injection, schedule: Q01DX009 (ip), vehicle: other",128 and 141 % of control
same,T/C,"dose: 25.0 mg/kg/injection, schedule: Q01DX005 (ip), vehicle: distilled water + Tween-80","130, 133, 135 % of control"
same,T/C,[3],"128, 135, 137 (2×), 144 % of control"
same,T/C,"dose: 25.0 mg/kg/injection, schedule: Q01DX009 (ip), vehicle: other",149 % of control
same,T/C,"dose: 50.0 mg/kg/injection, schedule: Q01DX005 (ip), vehicle: distilled water + Tween-80",144 and 147 % of control
same,T/C,"dose: 50.0 mg/kg/injection, schedule: Q01DX005 (ip), vehicle: saline with Tween-80","141, 142, 144, 147, 165 % of control"
same,T/C,[4],144 % of control
same,survivor count,[4],3 of 5
same,T/C,[5],"163, 171, 175, 188 % of control [5 of 6 alive] (2×)"
same,survivor count,"dose: 100.0 mg/kg/injection, schedule: Q01DX009 (ip), vehicle: other",5 of 6 and 6 of 6
same,survivor count,"dose: 200.0 mg/kg/injection, schedule: Q01DX005 (ip), vehicle: distilled water + Tween-80","0 of 5, 2 of 6, 2 of 5"
same,T/C,[6],"157, 182, 185 [5 of 6 alive], 198 % of control"
same,survivor count,[6],5 of 6 and 6 of 6
same,survivor count,"dose: 200.0 mg/kg/injection, schedule: Q01DX009 (ip), vehicle: other",2 of 6
same,survivor count,"dose: 400.0 mg/kg/injection, schedule: Q01DX005 (ip), vehicle: saline with Tween-80",1 of 6
same,survivor count,"dose: 400.0 mg/kg/injection, schedule: Q01DX009 (ip), vehicle: other",0 of 6
O=C(O)c1ccc(O)c(=O)cc1,survivor count,"dose: 100.0 mg/kg/injection, schedule: Q01DX001 (ip), vehicle: saline with Tween-80",1 of 6
same,survivor count,"dose: 200.0 mg/kg/injection, schedule: Q01DX001 (ip), vehicle: saline with Tween-80",0 of 6
same,survivor count,"dose: 400.0 mg/kg/injection, schedule: Q01DX001 (ip), vehicle: saline with Tween-80",0 of 6
CC1CCC(C)N(C)C1 (configuration not stated),survivor count,[5],2 of 6
same,survivor count,[6],0 of 6
NS(=O)(=O)c1ccc(Nc2c3ccccc3nc3c([N+](=O)[O-])cccc23)cc1,survivor count,"dose: 60.0 mg/kg/injection, schedule: Q01DX005 (ip), vehicle: saline with Tween-80",6 of 6
same,survivor count,[1],6 of 6
COc1ccc2c(c1)CN(Cc1c(Cl)cccc1Cl)CO2,survivor count,"dose: 25.0 mg/kg/injection, schedule: Q01DX005 (ip), vehicle: Klucel (hydroxypropylcellulose) (HPC)",6 of 6
O=C(N/C(=C/c1ccc(Cl)cc1Cl)c1nc2ccccc2s1)c1ccccc1,survivor count,[6],2 of 6
Cc1c(COC(=O)NC(C)C)c(COC(=O)NC(C)C)c2n1CS(=O)(=O)C2,T/C,"dose: 12.5 mg/kg/injection, schedule: Q01DX005 (ip), vehicle: saline with Tween-80",133 [5 of 6 alive] and 142 % of control
same,T/C,[3],147 % of control
same,survivor count,[5],6 of 6
c1ccc2c(c1)Sc1ccccc1N2Cc1cnc[nH]1,T/C,"dose: 50.0 mg/kg/injection, schedule: Q01DX009 (ip), vehicle: alcohol",141 % of control
same,T/C,"dose: 100.0 mg/kg/injection, schedule: Q01DX009 (ip), vehicle: alcohol",146 % of control
same,survivor count,"dose: 200.0 mg/kg/injection, schedule: Q01DX009 (ip), vehicle: alcohol",0 of 6 and 3 of 6
